# According to PubChem BioAssay AID504467 (National Center for Advancing Translational Sciences (NCATS), 2011):
# Hit rate of the full screen: of about 330,000 compounds, about 7,700 (2.3%) were called active. The shares of active, inactive and inconclusive entries below differ from those in the screen. Calls come from the whole dose curve; as a rule, active = well fitted inhibition curve with a large enough effect; inconclusive = small, poorly fitted or top-dose-only effect, or effect the other way; inactive = flat fitted curve, though single readings scatter. Potencies of inconclusive entries are doubtful fits and often do not repeat.
# Assay: qHTS screen for small molecules that inhibit ELG1-dependent DNA repair in human embryonic kidney (HEK293T) cells expressing luciferase-tagged ELG1; note: nearly all actives have a fitted effect of over 55% in size
# Details: HEK293T ELG1-luciferase reporter, luminescence, 16 h, DNA damage induced by 5-fluorouridine; series mostly up to 46.1 µM
# Procedure, shortened: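 Luminescence from the luciferase reporter, measured 30 min after ONE-Glo reagent at room temperature, was the read-out. Beforehand, 2,000 cells per well were exposed for 16 hr at 37 °C to 5-fluorouridine together with compound or vehicle.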
# Potency is the fitted concentration of half-maximal effect.
row,SMILES,Potency
1,COc1ccc(S(=O)(=O)NC(C)c2ccccc2)cc1C(=O)N1CCCCC1 (stereo unspecified),"inconclusive: 2.31 µM [activator, full curve]"
2,COc1ccc(-c2csc(NC(=S)NC(=O)c3ccccc3)n2)cc1Br,"inconclusive: 9.2 µM [activator, partial curve, poor fit]"
3,C=CCCC(=O)Nc1nc(C)c(-c2csc(Nc3ccc(Cl)cc3Cl)n2)s1,inactive
4,CN(c1ccccc1)S(=O)(=O)c1ccc(Cl)c(C(=O)NCC(c2ccco2)N2CCCC2)c1 (stereo unspecified),inactive
5,NNC(=O)c1ccc2nc(-c3ccc(Br)cc3)cn2c1,"inconclusive: 4.61 µM [activator, partial curve]"
6,CCC(C)[C@H](NC(=O)N1CCn2c1nc1ccccc12)C(=O)NCCc1ccccc1 (stereo partly specified),inactive
7,NC(=O)CC(NC(=O)c1ccccc1)c1ccc(N2CCC(Br)CC2)c([N+](=O)[O-])c1 (stereo unspecified),"inconclusive: 13 µM [inhibitor, partial curve, poor fit]"
8,O=C(CSc1ccccn1)NCc1ccc2c(c1)OCO2,"inconclusive: 29.1 µM [activator, single point]"
9,COCC(C)n1c(SCC(=O)N2CC(=O)Nc3ccccc32)nc2ccccc2c1=O (stereo unspecified),"inconclusive: 29.1 µM [inhibitor, single point]"
10,O=[N+]([O-])c1cccc2ccc(N3CCOCC3)nc12,"inconclusive: 12.6 µM [activator, single point]"
11,Cc1ccc(OCCSc2ncccn2)c(C)c1,"inconclusive: 2.59 µM [activator, full curve]"
12,Cn1c(Cc2nc3ccccc3n2C)nc2ccccc21,"inconclusive: 22.4 µM [inhibitor, single point]"
13,Cc1ccc(-c2csc(=S)n2CC(=O)OCC(=O)NCc2ccc(F)cc2)cc1,"inconclusive: 13 µM [activator, partial curve]"
14,Cc1cc(C)cc(NC(=S)NC2CC3CCC(C2)N3Cc2ccco2)c1 (stereo unspecified),inactive
15,Nc1ncnc(Nc2c(F)cccc2F)n1,"inconclusive: 9.2 µM [activator, partial curve]"
16,c1nc2sc3c(c2c2nnnn12)CCCC3,"inconclusive: 14.6 µM [inhibitor, partial curve]"
17,Cc1nc(NC(=O)CN(C)S(=O)(=O)c2ccc(Br)cc2)sc1C,"inconclusive: 18.4 µM [inhibitor, single point]"
18,CCN(Cc1ccccc1)S(=O)(=O)c1c(C)n(C)c(=O)n(C)c1=O,"inconclusive: 4.11 µM [activator, partial curve, poor fit]"
19,COc1ccc(OCCCSc2ncccn2)cc1,"inconclusive: 20.6 µM [activator, partial curve]"
20,Cc1c(Cl)cccc1NC(=O)CSc1nncn1-c1ccccn1,inactive
21,CCCCNC(=S)N/N=C/C1=CCC2CC1C2(C)C (stereo unspecified),"inconclusive: 25.9 µM [inhibitor, partial curve]"
22,Cc1cccc(OCc2nc3ccccc3c(=O)n2N)c1,"inconclusive: 6.51 µM [activator, partial curve]"
23,CC1CCCN(S(=O)(=O)c2ccc(C(=O)Nc3nnc(C4=COCCO4)o3)cc2)C1 (stereo unspecified),"inconclusive: 29.1 µM [inhibitor, single point]"

row,SMILES,Potency
1,CCCCCC(=O)N(O)C1CC(=O)N(c2ccccc2)C1=O (stereo unspecified),"inconclusive: 18.4 µM [activator, single point]"
2,COc1cc(CNC(C)(C)CO)cc(Br)c1OCc1ccc(Cl)cc1,inactive
3,CSCCNCc1c(C(=O)N2CCOCC2)nc2c(C)cccn12,inactive
4,CC(=O)C[C@@H](O)CC(=O)[C@H]1OC(=O)CC/C=C\Cc2ccccc21,"inconclusive: 6.51 µM [activator, partial curve, poor fit]"
5,Cc1ccc(CC(=O)NCCCc2ccccc2)cc1,inactive
6,COc1ccc(C(=O)Nc2ccc(S(=O)(=O)N3CCOCC3)cc2)cc1OC,inactive
7,c1ccc2c(c1)nc(N1CCCCCC1)c1ccccc12,inactive
8,C/C(=N\OC(=O)Nc1ccc(Cl)cc1)c1ccc(F)c(F)c1,"inconclusive: 18.3 µM [activator, single point]"
9,Cc1ccc2nccc(C(=O)N3CCCC(Nc4ccc(F)cc4)C3)c2c1 (stereo unspecified),inactive
10,O=C(Nc1ccc(F)cc1)Nc1ccc(S(=O)(=O)N2CCCC2)cc1,"inconclusive: 16.4 µM [inhibitor, single point]"
11,CCOC(=O)c1sc(NC(=O)Cc2c(F)cccc2Cl)nc1C,"inconclusive: 29.1 µM [inhibitor, single point]"
12,Cc1ccnc(Nc2nc(-c3ccc(Cl)cc3)cs2)c1,"inconclusive: 9.2 µM [activator, partial curve]"
13,Cc1ccc2nc3n(c(=O)c2c1)CCC3,"inconclusive: 23.1 µM [activator, partial curve, poor fit]"
14,COc1ccc(N2CCN(C(=O)Cn3cnc4c(cnn4-c4ccccc4)c3=O)CC2)cc1,"inconclusive: 6.51 µM [inhibitor, full curve]"
15,CCN(CC)C(=O)CSc1nc(N)c(C(=O)Nc2ccc(OC)cc2)s1,"inconclusive: 32.6 µM [inhibitor, partial curve, poor fit]"
16,Cc1cccc(C(=O)Nc2cccc(C(=O)NC3CCCC3)c2)c1,inactive
17,O=C(c1ccc(Cl)c(S(=O)(=O)N2CCOCC2)c1)N1CCc2ccccc2C1,"inconclusive: 25.9 µM [inhibitor, single point]"
18,CSc1nc(C)cc(Oc2ccccc2)n1,"inconclusive: 23.1 µM [activator, partial curve, poor fit]"
19,O=C(NC1CC1)C1=C[C@@H](c2c[nH]c3ccccc23)C[C@@H](OCCCCO)O1,inactive
20,O=C(COC(=O)CC12CC3CC(CC(C3)C1)C2)Nc1cccnc1Cl,"inconclusive: 29.1 µM [inhibitor, single point]"
21,COc1ccc(NC(=O)CSc2nnc(C)n2Cc2ccccc2)cc1,inactive
22,CCOc1ccc(S(=O)(=O)N2CCCC2)cc1,inactive
23,COc1ccc(C(=O)NCC(=O)N/N=C/c2cn(C)c3ccccc23)cc1OC,inactive

# At a glance, some entries already given.
row,SMILES,Potency
3,CSCCNCc1c(C(=O)N2CCOCC2)nc2c(C)cccn12,inactive
4,CC(=O)C[C@@H](O)CC(=O)[C@H]1OC(=O)CC/C=C\Cc2ccccc21,"inconclusive: 6.51 µM [activator, partial curve, poor fit]"
5,Cc1ccc(CC(=O)NCCCc2ccccc2)cc1,inactive
6,COc1ccc(C(=O)Nc2ccc(S(=O)(=O)N3CCOCC3)cc2)cc1OC,inactive
7,c1ccc2c(c1)nc(N1CCCCCC1)c1ccccc12,inactive
8,C/C(=N\OC(=O)Nc1ccc(Cl)cc1)c1ccc(F)c(F)c1,"inconclusive: 18.3 µM [activator, single point]"
9,Cc1ccc2nccc(C(=O)N3CCCC(Nc4ccc(F)cc4)C3)c2c1 (stereo unspecified),inactive
10,O=C(Nc1ccc(F)cc1)Nc1ccc(S(=O)(=O)N2CCCC2)cc1,"inconclusive: 16.4 µM [inhibitor, single point]"
11,CCOC(=O)c1sc(NC(=O)Cc2c(F)cccc2Cl)nc1C,"inconclusive: 29.1 µM [inhibitor, single point]"
12,Cc1ccnc(Nc2nc(-c3ccc(Cl)cc3)cs2)c1,"inconclusive: 9.2 µM [activator, partial curve]"
13,Cc1ccc2nc3n(c(=O)c2c1)CCC3,"inconclusive: 23.1 µM [activator, partial curve, poor fit]"
14,COc1ccc(N2CCN(C(=O)Cn3cnc4c(cnn4-c4ccccc4)c3=O)CC2)cc1,"inconclusive: 6.51 µM [inhibitor, full curve]"
